For assay [1], the target named is T1, p52 (as in the supplementary figures, tag not shown) (UniProt Q00653).
T1 sequence: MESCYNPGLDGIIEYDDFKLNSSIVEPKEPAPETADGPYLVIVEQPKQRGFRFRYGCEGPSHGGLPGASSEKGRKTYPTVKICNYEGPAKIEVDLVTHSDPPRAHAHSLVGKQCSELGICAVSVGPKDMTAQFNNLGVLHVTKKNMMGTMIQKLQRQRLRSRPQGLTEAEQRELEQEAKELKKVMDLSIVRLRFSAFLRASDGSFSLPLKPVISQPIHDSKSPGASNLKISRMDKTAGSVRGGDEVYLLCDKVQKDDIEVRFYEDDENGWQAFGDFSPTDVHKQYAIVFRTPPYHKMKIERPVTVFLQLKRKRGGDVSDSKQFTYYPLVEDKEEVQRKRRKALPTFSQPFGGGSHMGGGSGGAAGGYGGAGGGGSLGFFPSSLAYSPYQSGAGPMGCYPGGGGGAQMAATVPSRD
Briefly: co-IP; Figure S3A; cells and constructs not shown.

For assay [2], the target named is T2, p100 (as in the supplementary figures, tag not shown) (UniProt Q00653).
T2 sequence: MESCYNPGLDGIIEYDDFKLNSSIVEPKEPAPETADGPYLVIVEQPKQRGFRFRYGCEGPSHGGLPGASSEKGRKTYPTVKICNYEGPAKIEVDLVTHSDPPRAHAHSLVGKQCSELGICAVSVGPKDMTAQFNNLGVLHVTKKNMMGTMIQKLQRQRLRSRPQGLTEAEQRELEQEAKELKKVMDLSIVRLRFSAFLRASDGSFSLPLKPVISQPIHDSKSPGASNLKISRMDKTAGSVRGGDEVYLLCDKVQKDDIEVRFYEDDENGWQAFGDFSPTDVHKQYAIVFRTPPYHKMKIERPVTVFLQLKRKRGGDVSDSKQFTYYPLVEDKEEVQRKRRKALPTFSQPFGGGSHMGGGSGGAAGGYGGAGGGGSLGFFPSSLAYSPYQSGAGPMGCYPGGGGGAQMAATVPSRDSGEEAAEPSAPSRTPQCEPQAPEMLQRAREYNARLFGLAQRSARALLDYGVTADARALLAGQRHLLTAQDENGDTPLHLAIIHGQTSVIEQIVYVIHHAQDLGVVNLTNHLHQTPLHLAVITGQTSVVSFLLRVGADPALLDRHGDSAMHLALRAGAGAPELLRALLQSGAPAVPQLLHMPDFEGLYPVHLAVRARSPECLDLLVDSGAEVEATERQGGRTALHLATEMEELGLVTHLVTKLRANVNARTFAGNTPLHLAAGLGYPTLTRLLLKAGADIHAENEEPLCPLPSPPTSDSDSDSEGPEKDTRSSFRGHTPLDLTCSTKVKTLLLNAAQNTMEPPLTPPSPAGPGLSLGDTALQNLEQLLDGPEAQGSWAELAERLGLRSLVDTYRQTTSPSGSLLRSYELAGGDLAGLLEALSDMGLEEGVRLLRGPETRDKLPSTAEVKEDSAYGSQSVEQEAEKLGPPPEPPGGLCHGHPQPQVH
Briefly: co-IP; Figure S3A; cells and constructs not shown.

For the next assay, the target named is T3, Flag-p52 (1–415 aa) (UniProt Q00653).
T3 sequence: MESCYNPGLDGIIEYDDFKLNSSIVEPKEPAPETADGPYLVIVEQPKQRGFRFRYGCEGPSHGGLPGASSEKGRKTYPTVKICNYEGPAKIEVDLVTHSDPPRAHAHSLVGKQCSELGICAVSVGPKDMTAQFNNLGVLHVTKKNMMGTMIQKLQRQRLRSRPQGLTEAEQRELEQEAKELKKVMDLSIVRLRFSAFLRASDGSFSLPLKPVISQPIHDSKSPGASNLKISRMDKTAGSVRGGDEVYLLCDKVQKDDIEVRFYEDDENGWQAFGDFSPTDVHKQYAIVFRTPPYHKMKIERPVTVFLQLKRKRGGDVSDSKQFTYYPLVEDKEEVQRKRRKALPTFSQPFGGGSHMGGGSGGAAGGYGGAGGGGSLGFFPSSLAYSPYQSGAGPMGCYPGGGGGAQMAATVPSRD
Briefly: co-IP; extracts of HEK293T cells transfected with tagged constructs; in some panels treated with EBSS and Baf.

The next assay has as its target T4, Flag-p100 (FL) (UniProt Q00653).
T4 sequence: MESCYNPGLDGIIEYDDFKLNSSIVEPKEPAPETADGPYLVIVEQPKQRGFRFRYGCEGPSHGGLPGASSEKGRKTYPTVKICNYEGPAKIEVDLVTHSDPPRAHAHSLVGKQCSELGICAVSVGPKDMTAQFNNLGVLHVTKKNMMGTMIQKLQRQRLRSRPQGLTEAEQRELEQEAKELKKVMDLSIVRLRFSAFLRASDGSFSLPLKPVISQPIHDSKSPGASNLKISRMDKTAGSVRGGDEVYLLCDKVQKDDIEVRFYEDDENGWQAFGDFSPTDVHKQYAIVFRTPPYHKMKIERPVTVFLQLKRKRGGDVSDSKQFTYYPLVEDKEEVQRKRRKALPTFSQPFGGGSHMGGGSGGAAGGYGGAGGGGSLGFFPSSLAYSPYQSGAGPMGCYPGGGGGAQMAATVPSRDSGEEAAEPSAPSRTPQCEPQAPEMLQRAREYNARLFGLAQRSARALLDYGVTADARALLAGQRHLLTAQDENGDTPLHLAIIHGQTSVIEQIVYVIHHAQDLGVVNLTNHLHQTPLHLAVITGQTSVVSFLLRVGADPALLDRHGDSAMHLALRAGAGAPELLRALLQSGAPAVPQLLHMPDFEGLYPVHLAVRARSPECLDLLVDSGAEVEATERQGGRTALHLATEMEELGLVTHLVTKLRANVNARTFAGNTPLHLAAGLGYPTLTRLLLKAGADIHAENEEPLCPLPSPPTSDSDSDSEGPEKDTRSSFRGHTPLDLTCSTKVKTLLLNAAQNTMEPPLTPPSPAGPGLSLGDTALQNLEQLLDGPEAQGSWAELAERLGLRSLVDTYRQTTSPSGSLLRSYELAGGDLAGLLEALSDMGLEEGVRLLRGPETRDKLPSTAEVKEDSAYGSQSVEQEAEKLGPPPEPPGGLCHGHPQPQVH
The assay is described as above.

Assay [3] addresses T5, p100 (endogenous, mouse BMDMs) (mouse (endogenous in BMDMs)) (UniProt Q9WTK5).
T5 sequence: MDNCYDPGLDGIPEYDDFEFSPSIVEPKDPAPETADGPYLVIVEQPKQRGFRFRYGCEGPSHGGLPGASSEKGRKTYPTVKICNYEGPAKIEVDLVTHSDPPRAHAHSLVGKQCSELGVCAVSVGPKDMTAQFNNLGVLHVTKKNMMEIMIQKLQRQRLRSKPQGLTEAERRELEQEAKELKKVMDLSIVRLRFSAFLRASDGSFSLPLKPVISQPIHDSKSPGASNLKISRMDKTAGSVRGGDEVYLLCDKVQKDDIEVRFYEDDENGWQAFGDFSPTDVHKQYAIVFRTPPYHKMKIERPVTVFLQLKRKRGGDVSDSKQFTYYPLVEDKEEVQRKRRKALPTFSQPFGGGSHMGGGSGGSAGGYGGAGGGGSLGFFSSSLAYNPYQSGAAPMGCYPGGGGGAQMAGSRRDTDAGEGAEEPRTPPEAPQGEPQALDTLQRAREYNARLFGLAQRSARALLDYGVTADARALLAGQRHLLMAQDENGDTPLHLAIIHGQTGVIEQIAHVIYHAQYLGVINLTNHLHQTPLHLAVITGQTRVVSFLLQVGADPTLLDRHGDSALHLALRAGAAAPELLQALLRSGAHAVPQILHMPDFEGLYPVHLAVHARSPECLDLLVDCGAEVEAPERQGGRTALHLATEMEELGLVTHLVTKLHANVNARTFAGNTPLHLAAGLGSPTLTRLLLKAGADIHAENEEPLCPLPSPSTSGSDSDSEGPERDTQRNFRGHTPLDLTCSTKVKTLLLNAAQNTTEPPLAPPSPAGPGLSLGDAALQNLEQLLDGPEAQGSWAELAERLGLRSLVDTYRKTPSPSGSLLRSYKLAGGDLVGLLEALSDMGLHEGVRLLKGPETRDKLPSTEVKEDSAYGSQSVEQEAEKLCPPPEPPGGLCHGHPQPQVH
Briefly: co-IP; endogenous proteins; extracts of HeLa, THP-1, BMDMs or PBMCs treated with different stimuli (TNFα, EBSS); WT BMDMs compared with Trim14−/− BMDMs.

These are yes or no findings as the source states them, for the method shown. In cells and extracts the contact can be indirect. Some entries that bind do so weakly or less than the wild type. For part of these data: Sequences can lack the tags named with a protein.

B1: TRIM14 (construct of the supplementary figures, tag not shown) (protein, UniProt Q14142 1-442)
chain: MAGAATGSRTPGRSELVEGCGWRCPEHGDRVAELFCRRCRRCVCALCPVLGAHRGHPVGLALEAAVHVQKLSQECLKQLAIKKQQHIDNITQIEDATEKLKANAESSKTWLKGKFTELRLLLDEEEALAKKFIDKNTQLTLQVYREQADSCREQLDIMNDLSNRVWSISQEPDPVQRLQAYTATEQEMQQQMSLGELCHPVPLSFEPVKSFFKGLVEAVESTLQTPLDIRLKESINCQLSDPSSTKPGTLLKTSPSPERSLLLKYARTPTLDPDTMHARLRLSADRLTVRCGLLGSLGPVPVLRFDALWQVLARDCFATGRHYWEVDVQEAGAGWWVGAAYASLRRRGASAAARLGCNRQSWCLKRYDLEYWAFHDGQRSRLRPRDDLDRLGVFLDYEAGVLAFYDVTGGMSHLHTFRATFQEPLYPALRLWEGAISIPRLP
As to B1, the binding result in assay [1] and in assay [2] was “binds” in each case.

B2: HA-TRIM14 (protein, UniProt Q14142 1-442)
chain: MAGAATGSRTPGRSELVEGCGWRCPEHGDRVAELFCRRCRRCVCALCPVLGAHRGHPVGLALEAAVHVQKLSQECLKQLAIKKQQHIDNITQIEDATEKLKANAESSKTWLKGKFTELRLLLDEEEALAKKFIDKNTQLTLQVYREQADSCREQLDIMNDLSNRVWSISQEPDPVQRLQAYTATEQEMQQQMSLGELCHPVPLSFEPVKSFFKGLVEAVESTLQTPLDIRLKESINCQLSDPSSTKPGTLLKTSPSPERSLLLKYARTPTLDPDTMHARLRLSADRLTVRCGLLGSLGPVPVLRFDALWQVLARDCFATGRHYWEVDVQEAGAGWWVGAAYASLRRRGASAAARLGCNRQSWCLKRYDLEYWAFHDGQRSRLRPRDDLDRLGVFLDYEAGVLAFYDVTGGMSHLHTFRATFQEPLYPALRLWEGAISIPRLP
Consider B2, for which the binding entry with Flag-p52 (1–415 aa) and with Flag-p100 (FL) was “binds” throughout.

B3: Myc-TRIM14 (FL) (protein, UniProt Q14142 1-442)
chain: MAGAATGSRTPGRSELVEGCGWRCPEHGDRVAELFCRRCRRCVCALCPVLGAHRGHPVGLALEAAVHVQKLSQECLKQLAIKKQQHIDNITQIEDATEKLKANAESSKTWLKGKFTELRLLLDEEEALAKKFIDKNTQLTLQVYREQADSCREQLDIMNDLSNRVWSISQEPDPVQRLQAYTATEQEMQQQMSLGELCHPVPLSFEPVKSFFKGLVEAVESTLQTPLDIRLKESINCQLSDPSSTKPGTLLKTSPSPERSLLLKYARTPTLDPDTMHARLRLSADRLTVRCGLLGSLGPVPVLRFDALWQVLARDCFATGRHYWEVDVQEAGAGWWVGAAYASLRRRGASAAARLGCNRQSWCLKRYDLEYWAFHDGQRSRLRPRDDLDRLGVFLDYEAGVLAFYDVTGGMSHLHTFRATFQEPLYPALRLWEGAISIPRLP
For B3, the binding entry with Flag-p100 (FL) is “binds”.

B4: TRIM14 (endogenous, mouse BMDMs) (protein, UniProt Q8BVW3 1-440)
chain: MASETTEARAPFQPDGAYGWRCPEHSERPAELFCRRCGRCVCALCPVLGAHRGHPVGLAEEEAVRVQKLIQDCLECLATKKRQHADNIAHLEDAGERLKVYADSSKAWLTQKFTELRLLLDEEEVLAKKFIDKSTQLTLQVYREQAETCGKQIEVMDDFSTRVWGIGQEPNPVQLLQAYIATKTEMGQQMSPSELSHPVPLSFEPVKNFFKEFVEAIGNTLQTPMDTRLKENINCQLSNSSSTKPGALLKTSPSPERALFLKYARTPTLDPDTMHARLRLSPDGLTVRCSLLGRLGPRPAPRFDALRQVLGRDGFAAGRHYWEVDVQEAGVGWWVGAAYPSLRRRGASAAARLGCNRESWCVKRYDLEYWAFHDGQRSRLRPRRDPHRLGVFLDYEAGILAFYDVAGGMSHLHTFHAAFQEPLYPALRLWEGPISIPRLP
For the molecule B4, the binding entry in assay [3] was “binds”.
